# Test results: the supplement of paper PMC8728848
# This is one part of the list.
# What was measured:
# Test in all cases: glycan array binding signal (z-score within array); higher = stronger binding
# Conditions in all cases: glycan notation: IUPAC condensed, linker removed
# [1] = molecular target: Fuc(a1-3)[Gal(b1-4)]GlcNAc(b1-3)Gal(b1-4)[Fuc(a1-3)]GlcNAc
# Summary of the method: (§1)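 Arrays were curated from the Consortium for Functional Glycomics database, 3228 in total, and kept only where the protein sequence was available. Binding is expressed as a within-array Z-score. This score was averaged across arrays of the same protein sequence at different concentrations or buffers and across linkers, and negative values can be read as non-binding.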
# [2] = molecular target: Fuc(a1-3)[Gal(b1-4)]GlcNAc(b1-3)Gal(b1-4)[Fuc(a1-3)]GlcNAc(b1-3)Gal(b1-4)[Fuc(a1-3)]GlcNAc
# Summary of the method: as §1
# [3] = molecular target: Fuc(a1-3)[Gal(b1-4)]GlcNAc(b1-3)GalNAc
# Summary of the method: as §1
# [4] = molecular target: Fuc(a1-3)[Gal(b1-4)]GlcNAc(b1-6)GalNAc
# Summary of the method: as §1
# [5] = molecular target: Fuc(a1-3)[Gal(b1-4)]GlcNAc(b1-6)[Gal(b1-3)GlcNAc(b1-3)]Gal(b1-4)Glc
# Summary of the method: as §1
# [6] = molecular target: Fuc(a1-3)[Gal(b1-4)]GlcNAc6S
# Summary of the method: as §1
# [7] = molecular target: Fuc(a1-3)[Gal3S(b1-4)]Glc
# Summary of the method: as §1
# [8] = molecular target: Fuc(a1-3)[Gal3S(b1-4)]GlcNAc
# Summary of the method: as §1
# [9] = molecular target: Fuc(a1-3)[Gal3S(b1-4)]GlcNAc6S
# Summary of the method: as §1
# [10] = molecular target: Fuc(a1-3)[GalNAc(b1-4)]GlcNAc
# Summary of the method: as §1
# [11] = molecular target: Fuc(a1-3)[GalNAc(b1-4)]GlcNAc6S
# Summary of the method: as §1
# [12] = molecular target: Fuc(a1-4)GlcNAc
# Summary of the method: as §1
# [13] = molecular target: Fuc(b1-3)GlcNAc
# Summary of the method: as §1
# [14] = molecular target: Gal(a1-2)Gal
# Summary of the method: as §1
# [15] = molecular target: Gal(a1-3)Gal
# Summary of the method: as §1
# [16] = molecular target: Gal(a1-3)Gal(b1-3)GlcNAc
# Summary of the method: as §1
# [17] = molecular target: Gal(a1-3)Gal(b1-3)GlcNAc(b1-2)Man
# Summary of the method: as §1
# [18] = molecular target: Gal(a1-3)Gal(b1-3)GlcNAc(b1-2)Man(a1-3)[Gal(a1-3)Gal(b1-3)GlcNAc(b1-2)Man(a1-6)]Man(b1-4)GlcNAc(b1-4)GlcNAc
# Summary of the method: as §1
# [19] = molecular target: Gal(a1-3)Gal(b1-3)GlcNAc(b1-3)GalNAc
# Summary of the method: as §1
# [20] = molecular target: Gal(a1-3)Gal(b1-3)GlcNAc(b1-6)GalNAc
# Summary of the method: as §1
# [21] = molecular target: Gal(a1-3)Gal(b1-3)[Fuc(a1-4)]GlcNAc(b1-2)Man(a1-3)[Gal(a1-3)Gal(b1-3)[Fuc(a1-4)]GlcNAc(b1-2)Man(a1-6)]Man(b1-4)GlcNAc(b1-4)GlcNAc
# Summary of the method: as §1
# [22] = molecular target: Gal(a1-3)Gal(b1-4)Glc
# Summary of the method: as §1
# [23] = molecular target: Gal(a1-3)Gal(b1-4)GlcNAc
# Summary of the method: as §1
# [24] = molecular target: Gal(a1-3)Gal(b1-4)GlcNAc(b1-2)Man
# Summary of the method: as §1
# [25] = molecular target: Gal(a1-3)Gal(b1-4)GlcNAc(b1-2)Man(a1-3)[Gal(a1-3)Gal(b1-4)GlcNAc(b1-2)Man(a1-6)]Man(b1-4)GlcNAc(b1-4)GlcNAc
# Summary of the method: as §1
# [26] = molecular target: Gal(a1-3)Gal(b1-4)GlcNAc(b1-3)GalNAc
# Summary of the method: as §1
# [27] = molecular target: Gal(a1-3)Gal(b1-4)GlcNAc(b1-6)GalNAc
# Summary of the method: as §1
# [28] = molecular target: Gal(a1-3)Gal(b1-4)[Fuc(a1-3)]GlcNAc
# Summary of the method: as §1
# [29] = molecular target: Gal(a1-3)Gal(b1-4)[Fuc(a1-3)]GlcNAc(b1-2)Man(a1-3)[Gal(a1-3)Gal(b1-4)[Fuc(a1-3)]GlcNAc(b1-2)Man(a1-6)]Man(b1-4)GlcNAc(b1-4)GlcNAc
# Summary of the method: as §1
# [30] = molecular target: Gal(a1-3)GalNAc
# Summary of the method: as §1
# [31] = molecular target: Gal(a1-3)[Gal(a1-4)]Gal(b1-4)GlcNAc
# Summary of the method: as §1
# [32] = molecular target: Gal(a1-4)Gal(b1-3)GlcNAc(b1-2)Man(a1-3)[Gal(a1-4)Gal(b1-3)GlcNAc(b1-2)Man(a1-6)]Man(b1-4)GlcNAc(b1-4)GlcNAc
# Summary of the method: as §1
# [33] = molecular target: Gal(a1-4)Gal(b1-4)Glc
# Summary of the method: as §1
# [34] = molecular target: Gal(a1-4)Gal(b1-4)GlcNAc
# Summary of the method: as §1
# [35] = molecular target: Gal(a1-4)Gal(b1-4)GlcNAc(b1-2)Man(a1-3)[Gal(a1-4)Gal(b1-4)GlcNAc(b1-2)Man(a1-6)]Man(b1-4)GlcNAc(b1-4)GlcNAc
# Summary of the method: as §1
# [36] = molecular target: Gal(a1-4)Gal(b1-4)GlcNAc(b1-3)Gal(b1-4)Glc
# Summary of the method: as §1
# [37] = molecular target: Gal(a1-4)GlcNAc
# Summary of the method: as §1
# [38] = molecular target: Gal(a1-6)Glc
# Summary of the method: as §1
binder,measurement,setting,value
SynCAM (Mus musculus) (protein) MASAVLPSGSQCAAAAAVAAAAAPPGLRLRLLLLLLSAAALIPTGDGQNLFTKDVTVIEGEVATISCQVNKSDDSVIQLLNPNRQTIYFRDFRPLKDSRFQLLNFSSSELKVSLTNVSISDEGRYFCQLYTDPPQESYTTITVLVPPRNLMIDIQKDTAVEGEEIEVNCTAMASKPATTIRWFKGNKELKGKSEVEEWSDMYTVTSQLMLKVHKEDDGVPVICQVEHPAVTGNLQTQRYLEVQYKPQVHIQMTYPLQGLTREGDAFELTCEAIGKPQPVMVTWVRVDDEMPQHAVLSGPNLFINNLNKTDNGTYRCEASNIVGKAHSDYMLYVYDPPTTIPPP,glycan array binding signal (z-score),[1],1.02
same,glycan array binding signal (z-score),[2],-0.148
same,glycan array binding signal (z-score),[3],-0.245
same,glycan array binding signal (z-score),[4],-0.537
same,glycan array binding signal (z-score),[5],-0.563
same,glycan array binding signal (z-score),[6],-0.003
same,glycan array binding signal (z-score),[7],-0.287
same,glycan array binding signal (z-score),[8],-0.415
same,glycan array binding signal (z-score),[9],-1.13
same,glycan array binding signal (z-score),[10],2.63
same,glycan array binding signal (z-score),[11],-0.587
same,glycan array binding signal (z-score),[12],-0.05
same,glycan array binding signal (z-score),[13],0.961
same,glycan array binding signal (z-score),[14],-0.215
same,glycan array binding signal (z-score),[15],0.302
same,glycan array binding signal (z-score),[16],-0.43
same,glycan array binding signal (z-score),[17],-1.05
same,glycan array binding signal (z-score),[18],-1.34
same,glycan array binding signal (z-score),[19],-0.89
same,glycan array binding signal (z-score),[20],0.486
same,glycan array binding signal (z-score),[21],1.69
same,glycan array binding signal (z-score),[22],-0.165
same,glycan array binding signal (z-score),[23],-1.52
same,glycan array binding signal (z-score),[24],-0.793
same,glycan array binding signal (z-score),[25],0.403
same,glycan array binding signal (z-score),[26],-0.603
same,glycan array binding signal (z-score),[27],0.184
same,glycan array binding signal (z-score),[28],-0.499
same,glycan array binding signal (z-score),[29],1.48
same,glycan array binding signal (z-score),[30],0.125
same,glycan array binding signal (z-score),[31],2.35
same,glycan array binding signal (z-score),[32],-0.748
same,glycan array binding signal (z-score),[33],-0.6
same,glycan array binding signal (z-score),[34],0.522
same,glycan array binding signal (z-score),[35],1.04
same,glycan array binding signal (z-score),[36],-0.973
same,glycan array binding signal (z-score),[37],-0.793
same,glycan array binding signal (z-score),[38],-0.988

# Shown with bars between the fields: entries from further up
binder | measurement | setting | value
SynCAM (Mus musculus) (protein) MASAVLPSGSQCAAAAAVAAAAAPPGLRLRLLLLLLSAAALIPTGDGQNLFTKDVTVIEGEVATISCQVNKSDDSVIQLLNPNRQTIYFRDFRPLKDSRFQLLNFSSSELKVSLTNVSISDEGRYFCQLYTDPPQESYTTITVLVPPRNLMIDIQKDTAVEGEEIEVNCTAMASKPATTIRWFKGNKELKGKSEVEEWSDMYTVTSQLMLKVHKEDDGVPVICQVEHPAVTGNLQTQRYLEVQYKPQVHIQMTYPLQGLTREGDAFELTCEAIGKPQPVMVTWVRVDDEMPQHAVLSGPNLFINNLNKTDNGTYRCEASNIVGKAHSDYMLYVYDPPTTIPPP | glycan array binding signal (z-score) | [4] | -0.537
same | glycan array binding signal (z-score) | [8] | -0.415
same | glycan array binding signal (z-score) | [11] | -0.587
same | glycan array binding signal (z-score) | [13] | 0.961
same | glycan array binding signal (z-score) | [31] | 2.35
same | glycan array binding signal (z-score) | [32] | -0.748
same | glycan array binding signal (z-score) | [35] | 1.04
same | glycan array binding signal (z-score) | [36] | -0.973
same | glycan array binding signal (z-score) | [37] | -0.793
